No constants are given. Whether binding was seen depends on the method and setting. Binding seen in cells or lysates may run through a third protein. Some entries that bind do so weakly or less than the wild type.
What follows are binders tested against GFP-Ubx expressed from the endogenous Ubx locus (Drosophila (endogenous in embryos)) (UniProt P83949) (assay: co-IP; embryos (w1118 control or endogenous GFP-Ubx) fixed with 3.2% formaldehyde; nuclear lysate sonicated, Benzonase treated, in NP40 buffer (20 mM Tris pH 7.5, 150 mM NaCl, 2 mM EDTA, 1% NP40), overnight with GFP-Trap beads; immunoblot; endogenous levels of all proteins).

Amino acid sequences for entries named in this document (tags omitted).
UniProt P83949: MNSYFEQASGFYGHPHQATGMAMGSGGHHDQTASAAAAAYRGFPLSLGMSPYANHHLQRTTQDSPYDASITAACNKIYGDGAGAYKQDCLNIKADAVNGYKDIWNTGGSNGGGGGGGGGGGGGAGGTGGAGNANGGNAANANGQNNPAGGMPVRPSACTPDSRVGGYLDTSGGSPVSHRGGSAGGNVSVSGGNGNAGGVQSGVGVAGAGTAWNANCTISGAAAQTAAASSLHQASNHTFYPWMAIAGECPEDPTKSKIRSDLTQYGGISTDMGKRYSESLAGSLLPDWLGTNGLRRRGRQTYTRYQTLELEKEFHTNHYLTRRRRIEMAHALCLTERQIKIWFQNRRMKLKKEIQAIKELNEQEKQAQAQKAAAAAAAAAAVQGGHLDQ

| Binder | binding |
| --- | --- |
| Tinman (Tin), endogenous (protein, UniProt P22711 1-416) MLQHHQQQAQSGGYYDHYTQSPSPGSLTNADALNTTPFSVKDILNMVNQTEAYEGSYGHIDGAATASALFAAGEYQNPHQYLNHQQHQQSELPIPQQQLHHQHLDDGATTSSSLSPLLPPPPHQLYGGYQDYGMPAHMFQHHHGHPHQSFQHSASAYNMSASQFYAGASATAYQTPATYNYNYAGSGEVYGGATPSAVGIKSEYIPTPYVTPSPTLDLNSSAEVDSLQAPTQKLCVNPLSQRLMETASNSSSLRSIYGSDEGAKKKDNSQVTSSRSELRKNSISGNSNPGSNSGSTKPRMKRKPRVLFSQAQVLELECRFRLKKYLTGAEREIIAQKLNLSATQVKIWFQNRRYKSKRGDIDCEGIAKHLKLKSEPLDSPTSLPPPIPNHVMWPPTMQQSQQQQQHHAQQQQMQHM | binds |
| Motif 1 binding protein (M1BP), endogenous (protein, UniProt Q9VHM3 1-418) MSKSALKHLKSTCRVCAKYASNKRSPKLFERSNTKMIDNIEALTGLRLENYGCLPDQICECCSMELASAVKLRERCIAAQRELLLGLTEEQRQGISAFYRAAVMGEDIVQTVKTPDDDEVYATYQEIVLEEPKEEIDDTKVEYDNTYYEVAEGHAGEDDAASLIEEADYDSIMAEDEEQQQTLELDEDTELIVGDVNDAYVYDSDDEVAVLDNVLDDEYEHENIVVKKCSLPPKPKVRSDDARRRGTGGVYICEQCGNHIKGRMAFELHCRRHRGDKQFGCELCQSRFCTTSELKRHMRKHTGERPFACKYCGRCFTDYTTRVKHERTHTNERPYVCGTCGKAFTTGYILKNHMLIHSGERAYRCELCDKSFMLPTHLSTHFRSGVHKRHLEKAEMKQVLEQEQKRELKEEEEDSLHI | binds |
| Polycomb (Pc), endogenous (protein, UniProt P26017 1-390) MTGRGKGSKGKLGRDNATDDPVDLVYAAEKIIQKRVKKGVVEYRVKWKGWNQRYNTWEPEVNILDRRLIDIYEQTNKSSGTPSKRGIKKKEKEPDPEPESEEDEYTFTENDVDTHQATTSSATHDKESKKEKKHHHHHHHHHHIKSERNSGRRSESPLTHHHHHHHHESKRQRIDHSSSSNSSFTHNSFVPEPDSNSSSSEDQPLIGTKRKAEVLKESGKIGVTIKTSPDGPTIKPQPTQQVTPSQQQPFQDQQQAEKIASEAATQLKSEQQATPLATEAINTTPAESGAEEEEVANEEGNQQAPQVPSENNNIPKPCNNLAINQKQPLTPLSPRALPPRFWLPAKCNISNRVVITDVTVNLETVTIRECKTERGFFRERDMKGDSSPVA | no binding |

From article PMC7069958
